Results taken from publication PMC8582450.
These are yes or no findings as the source states them, for the method shown. Binding seen in cells or lysates may run through a third protein. Some entries that bind do so weakly or less than the wild type. Where a sequence is shown, tags or fusion partners need not be part of it.

Amino acid sequences for entries named in this document (tags omitted).
UniProt P46940: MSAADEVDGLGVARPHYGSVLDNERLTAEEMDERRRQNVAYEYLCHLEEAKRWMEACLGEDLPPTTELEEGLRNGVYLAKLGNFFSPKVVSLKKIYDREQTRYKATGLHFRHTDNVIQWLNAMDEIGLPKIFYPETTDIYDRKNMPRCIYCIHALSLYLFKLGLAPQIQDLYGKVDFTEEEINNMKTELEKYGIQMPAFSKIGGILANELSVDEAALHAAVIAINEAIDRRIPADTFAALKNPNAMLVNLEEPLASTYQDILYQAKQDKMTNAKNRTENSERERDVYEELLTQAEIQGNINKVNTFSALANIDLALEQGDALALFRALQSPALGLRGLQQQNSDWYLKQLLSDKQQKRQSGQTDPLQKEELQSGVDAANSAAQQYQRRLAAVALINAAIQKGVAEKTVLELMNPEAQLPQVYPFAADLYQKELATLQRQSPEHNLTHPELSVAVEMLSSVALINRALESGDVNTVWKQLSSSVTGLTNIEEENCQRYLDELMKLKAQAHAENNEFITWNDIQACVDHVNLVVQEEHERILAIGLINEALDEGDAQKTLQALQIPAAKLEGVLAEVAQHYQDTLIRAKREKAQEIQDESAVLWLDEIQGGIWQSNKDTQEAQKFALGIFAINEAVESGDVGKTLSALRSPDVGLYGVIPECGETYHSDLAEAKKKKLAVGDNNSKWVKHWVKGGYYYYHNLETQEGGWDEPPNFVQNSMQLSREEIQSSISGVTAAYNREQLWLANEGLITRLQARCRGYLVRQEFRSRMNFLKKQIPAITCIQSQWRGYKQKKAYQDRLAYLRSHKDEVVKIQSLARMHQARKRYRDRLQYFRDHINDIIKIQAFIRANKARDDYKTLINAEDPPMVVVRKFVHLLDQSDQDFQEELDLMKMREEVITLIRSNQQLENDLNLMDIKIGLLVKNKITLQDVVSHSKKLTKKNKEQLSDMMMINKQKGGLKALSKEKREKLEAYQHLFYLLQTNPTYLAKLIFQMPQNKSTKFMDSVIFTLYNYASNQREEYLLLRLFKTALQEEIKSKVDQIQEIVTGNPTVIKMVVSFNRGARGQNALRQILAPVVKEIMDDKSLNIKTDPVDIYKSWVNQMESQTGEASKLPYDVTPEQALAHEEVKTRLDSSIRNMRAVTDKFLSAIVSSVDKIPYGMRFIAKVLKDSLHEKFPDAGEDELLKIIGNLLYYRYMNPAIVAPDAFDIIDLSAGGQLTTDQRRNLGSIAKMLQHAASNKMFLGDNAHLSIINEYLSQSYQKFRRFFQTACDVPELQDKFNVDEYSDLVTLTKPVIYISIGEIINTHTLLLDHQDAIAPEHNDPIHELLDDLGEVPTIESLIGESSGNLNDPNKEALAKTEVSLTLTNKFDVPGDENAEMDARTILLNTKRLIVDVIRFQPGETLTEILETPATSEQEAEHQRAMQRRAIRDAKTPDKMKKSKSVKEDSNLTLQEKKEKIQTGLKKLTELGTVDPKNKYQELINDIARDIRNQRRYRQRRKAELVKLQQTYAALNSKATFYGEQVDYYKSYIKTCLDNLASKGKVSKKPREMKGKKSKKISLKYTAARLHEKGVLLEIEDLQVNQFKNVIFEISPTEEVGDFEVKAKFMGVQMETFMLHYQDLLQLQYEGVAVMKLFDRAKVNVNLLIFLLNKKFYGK
UniProt P12004: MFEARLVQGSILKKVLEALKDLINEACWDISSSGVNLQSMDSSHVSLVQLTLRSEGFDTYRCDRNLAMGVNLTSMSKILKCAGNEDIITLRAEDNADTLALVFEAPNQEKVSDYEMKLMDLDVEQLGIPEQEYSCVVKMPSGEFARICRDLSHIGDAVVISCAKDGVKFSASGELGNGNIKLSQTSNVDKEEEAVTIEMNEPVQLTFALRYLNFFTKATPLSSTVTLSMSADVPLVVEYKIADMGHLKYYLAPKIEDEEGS

Experiments:
[1] = target: T1, HA-NIS (full-length sodium–iodide symporter with a triple HA tag in the fourth extracellular loop) (human) (UniProt Q92911); experiment: co-IP; PM-IP: intact HA-NIS-TPC1 cells on ice labelled with rabbit anti-HA (4 µg/mL, 2 h, 4 °C), washed, lysed in 1% NP40, 150 mM NaCl, Tris pH 7.5; protein G Dynabeads; washes with 300 mM NaCl; Western blot; non-specific IgG as control
T1 sequence: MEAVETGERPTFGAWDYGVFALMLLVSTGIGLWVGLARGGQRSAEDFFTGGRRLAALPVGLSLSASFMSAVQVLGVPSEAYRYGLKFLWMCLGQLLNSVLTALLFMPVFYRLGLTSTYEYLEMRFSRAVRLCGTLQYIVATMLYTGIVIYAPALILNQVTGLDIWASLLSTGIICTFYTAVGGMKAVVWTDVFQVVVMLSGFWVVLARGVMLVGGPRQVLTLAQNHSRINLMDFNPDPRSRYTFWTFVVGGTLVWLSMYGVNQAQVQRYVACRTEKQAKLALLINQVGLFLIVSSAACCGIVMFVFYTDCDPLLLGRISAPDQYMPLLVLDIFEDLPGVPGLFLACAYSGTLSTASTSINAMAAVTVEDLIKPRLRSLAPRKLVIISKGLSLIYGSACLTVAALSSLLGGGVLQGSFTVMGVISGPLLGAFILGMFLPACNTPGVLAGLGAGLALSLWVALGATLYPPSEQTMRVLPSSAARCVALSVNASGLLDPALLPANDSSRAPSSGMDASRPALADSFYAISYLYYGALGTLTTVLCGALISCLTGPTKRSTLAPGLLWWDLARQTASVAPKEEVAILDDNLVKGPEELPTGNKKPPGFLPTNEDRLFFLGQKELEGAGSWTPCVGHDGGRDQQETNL

[2] = target: T1, HA-NIS (full-length sodium–iodide symporter with a triple HA tag in the fourth extracellular loop) (human); experiment: co-IP; WC-IP: whole cell lysate of HA-NIS-TPC1 cells (1% NP40, 150 mM NaCl, Tris pH 7.5) with rabbit anti-HA overnight at 4 °C; protein G Dynabeads; washes with 300 mM NaCl; Western blot; non-specific IgG as control

Substance: IQGAP1 (RAS GTPase-activating-like protein IQGAP1) (from UniProt P46940 1-1657)
- binding [1]: binds
- binding [2]: binds

Substance: PCNA (proliferating cell nuclear antigen) (from UniProt P12004 1-261)
- binding [1]: no binding
- binding [2]: no binding
